## Percent effect of library compounds

Amino acid sequences for entries named in this document (tags omitted).
UniProt P9WPC5, whole entry: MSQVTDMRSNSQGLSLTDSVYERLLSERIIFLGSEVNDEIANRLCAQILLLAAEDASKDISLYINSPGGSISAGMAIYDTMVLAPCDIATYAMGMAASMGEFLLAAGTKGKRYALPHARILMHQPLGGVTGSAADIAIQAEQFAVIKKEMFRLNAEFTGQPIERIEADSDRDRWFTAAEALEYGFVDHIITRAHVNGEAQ
UniProt P9WPC3, whole entry partner: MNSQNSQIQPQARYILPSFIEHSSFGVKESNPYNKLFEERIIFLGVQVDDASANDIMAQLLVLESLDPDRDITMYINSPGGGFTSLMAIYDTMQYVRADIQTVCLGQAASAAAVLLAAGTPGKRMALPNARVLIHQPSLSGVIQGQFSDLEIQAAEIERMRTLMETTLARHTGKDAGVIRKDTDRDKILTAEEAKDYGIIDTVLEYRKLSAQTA

Each number is a percent effect as filed. How 0% and 100% were set is not recorded. Most values in the screen are low, and negative values occur. The compounds are a random part of those screened.

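Protease assay of ClpP1P2, read by the AMC dye that it sets free. Target: ClpP1P2, Mycobacterium tuberculosis (UniProt P9WPC5 and UniProt P9WPC3). Compounds at 50 µM. Higher reads as stronger inhibition, judged from the few compounds that gave an IC50. Most other retested compounds had strongly negative values. About 69,000 compounds were tested under these conditions; 0.015% (about 10) showed 50% or more at least once.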

For O=C(NCc1ccccc1)N1C[C@H]2C[C@H](C(=O)N3CCCC3)[C@@H](C1)O2 the result was 5.931%. O=C(CC(F)(F)F)N1CCc2[nH]nc(-c3ccc4c(c3)OCO4)c2C1 read -3.657%. With CNC(=O)CC1CCN(C(=O)NCc2coc3ccccc23)CC1 the screen gave 1.296%. With COc1cc(OC)cc(-c2cc(N)on2)c1 the screen gave 11.31%. Result for O=C(CC1CCCCC1)N1CCOCC1CO (stereo not drawn) was -13.19%. Result for CN(CCc1cnn(C)c1)C(=O)C(c1ccccc1F)N(C)C (stereo not drawn) was -9.759%. With Cc1nc(N2CCCCC2)ncc1-c1cc(=O)[nH]c(N2CCCC2)n1 the screen gave 3.337%. Cn1nc(CNC(=O)C2COc3ccccc3O2)cc1C1CC1 (stereo not drawn) gave -17.82%.

Cc1ccsc1C(=O)N1CCN(Cc2cscn2)CC1 gave -41.82%. For CC1c2ncc(Cn3cncn3)n2CCN1C(=O)c1ccsc1 (stereo not drawn) the result was -13.63%. CS(=O)(=O)CCC(=O)N1CCC(c2ccc(F)c(F)c2)CC1 gave -6.834%. Result for NC(=O)C1(CCCc2ccccn2)CCCN(c2ncccn2)C1 (stereo not drawn) was -7.244%. Result for Cc1ccccc1OC1CCN(CC(=O)Nc2cnn(C)c2C)CC1 was -19.1%. Cc1cnc2cc(C3CCN(C(=O)c4ccncc4)CC3)[nH]c2n1 gave -33.29%. Result for CCN(Cc1ccc(OC)c(F)c1)C(=O)c1ccc(C)[nH]c1=O was 9.444%. Cc1cc(Oc2ccccc2)nc(C2CCCCN2)n1 (stereo not drawn) gave -5.116%.

CSCc1ccc(CNC2CCCN(c3ccc(C)nn3)C2)o1 (stereo not drawn) gave -0.3147%. c1ncn(Cc2cnc3n2CCN(Cc2ccsc2)CC3)n1 read -8.114%. With CCCn1cc(-c2ccnc(NC3CCc4ccccc4C3)n2)c(C)n1 (stereo not drawn) the screen gave -2.145%. Result for CCS(=O)(=O)N1CCCC2(CCCN2Cc2cccc(F)c2)C1 (stereo not drawn) was -10.66%. For CCn1ccnc1CN1CCN(CC(O)c2ccco2)CC1 (stereo not drawn) the result was -24.96%. For Cc1nc(C)n(CC2CCCN2Cc2cn3ccccc3n2)n1 (stereo not drawn) the result was -36.19%. CO[C@H]1CCN(C(=O)Cc2ccc(F)cc2)[C@H]1Cc1ccncc1 gave -11.35%. CCn1ncc2c1CCCC2NCc1cccc2c1OCCO2 (stereo not drawn) read -1.433%.

CN(C)CC1CSCCCN1C(=O)c1ccsc1 (stereo not drawn) read -6.111%. COCCCNC(=O)Cc1nc(-c2ccncc2)n[nH]1 read -4.433%. For Cc1cc(C)c(CNC(=O)N2CCC(N3CCNC3=O)CC2)c(C)c1 the result was -5.721%. For CCCSc1ncc(CN2CCN(C)C(=O)C2C)cn1 (stereo not drawn) the result was 2.5%. COc1ccccc1CC(C)CC(=O)NS(=O)(=O)C(C)C (stereo not drawn) read 13.77%. With CCOC(=O)[C@]12CCCN(Cc3nccs3)C[C@H]1CN(C(C)=O)C2 the screen gave -27.08%. Result for COc1ccc(S(=O)(=O)N2CCC(S(C)(=O)=O)CC2)cc1C was -11.6%. Result for Cc1ncc2c(n1)CCCC2NC(=O)c1ccccc1C(=O)O (stereo not drawn) was 7.621%.

With CCc1noc(CSc2n[nH]c(-c3ccccn3)n2)n1 the screen gave -2.067%. Cc1ccc2c(n1)N(CCN(C)C)CCN(C(=O)c1ccsc1)C2 read -4.909%. N#Cc1ccc(CNC(=O)NC2CCN(CC(F)F)CC2)cc1 read -0.1352%. With Cc1ncc(CNCC(=O)NCC(F)(F)F)n1-c1ccccc1 the screen gave -3.039%. Result for Cc1cc(NC(=O)CCNC(C)(C)c2nc(C)c(C)s2)no1 was -9.715%. For COC(=O)c1cc(C(=O)N2CCOC(C)(C)C2)n(-c2ccccc2)n1 the result was -24.14%. Result for Cc1ccccc1N1CCN(c2ccncn2)C(C)C1 (stereo not drawn) was -13.95%. Cc1noc(C)c1C(=O)N1CCCC(c2c(C)c(=O)nc3n2CCC3)C1 (stereo not drawn) read 4.929%.

CC(C)=CCN1C[C@@H]2CN(C(=O)c3cnccc3C)C[C@]2(C(=O)O)C1 read -7.577%. With COCCc1noc(CN2CCOC(Cn3cc(C)cn3)C2)n1 (stereo not drawn) the screen gave -8.752%. For COc1ccc(C(=O)O)cc1-c1cccc2c1CCNC2 the result was -5.533%. Result for Cc1nc(CSCCC(=O)NCC(=O)NC(C)C)cs1 was 1.699%. CN(C)C1(CNc2nccc(C3CCCC3)n2)CCOCC1 gave -3.646%. Result for CC(C)=CCN1C(=O)[C@H]2CC[C@@H]1CN(c1ncccc1C(N)=O)C2 was -12.95%. With COCCNc1nc2c(c(N3CCn4nc(C)cc4C3)n1)CCNCC2 the screen gave -16.65%. With CCCN(CC1COc2ccccc2O1)C(=O)CCn1cncn1 (stereo not drawn) the screen gave 15.24%.

O=C1CC2(CCN(Cc3ccc(C(F)(F)F)nc3)CC2)CN1 gave -9.716%. NCc1cn(-c2ccccc2C(=O)NCc2ccccc2)cn1 gave 5.717%. Result for CC(C)c1nnc(N2C[C@@H]3CC[C@H](C2)N(CC2CCC2)C3)s1 was 22.84%. CC(C)c1ncc2c(n1)CN(Cc1cccc(C(N)=O)c1)CC2 read -30.23%. With CCC(C(=O)NCc1cc(N2CCOCC2)ncn1)n1cccn1 (stereo not drawn) the screen gave -1.879%. For O=C(c1cn(CCN2CCCCC2)nn1)N1CCCO1 the result was 2.649%. COC(=O)c1cnn(-c2cc(Oc3cccc(C)c3)ncn2)c1N read 0.1876%. Result for CCN(CC)C(=O)Cn1c(=O)n(Cc2ccco2)c2ncccc21 was -10.5%.

For Cc1nc(CCN(C)C(=O)CN2CCCCCC2)no1 the result was -3.327%.

The first 7 entries again:

| SMILES | Percent Effect |
|---|---|
| `O=C(NCc1ccccc1)N1C[C@H]2C[C@H](C(=O)N3CCCC3)[C@@H](C1)O2` | 5.931 |
| `O=C(CC(F)(F)F)N1CCc2[nH]nc(-c3ccc4c(c3)OCO4)c2C1` | -3.657 |
| `CNC(=O)CC1CCN(C(=O)NCc2coc3ccccc23)CC1` | 1.296 |
| `COc1cc(OC)cc(-c2cc(N)on2)c1` | 11.31 |
| `O=C(CC1CCCCC1)N1CCOCC1CO` (stereo not drawn) | -13.19 |
| `CN(CCc1cnn(C)c1)C(=O)C(c1ccccc1F)N(C)C` (stereo not drawn) | -9.759 |
| `Cc1nc(N2CCCCC2)ncc1-c1cc(=O)[nH]c(N2CCCC2)n1` | 3.337 |

Source: ChEMBL document CHEMBL3988442, “University of Dundee, Small-Polar-MMV Screening Library” (2021).